PubChem BioAssay AID1224830 – NIAID – 2016
The deposit covers about 18,000 reagents; below is a part drawn at random. About 2,900 of all reagents (16%) count as active. 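Calls are made per well; low scores hint the gene aids the LPS response, high scores that it dampens it.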 Unmarked entries are inactive. Repeated entries: four replicate wells of each siRNA pool.

- Purpose: 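Host factors that control LPS-induced TNF expression in human macrophages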 (primary screen)
- Cell system: human THP-1 monocytic leukaemia cells, TNF dual-luciferase reporter clone, PMA-differentiated to macrophage-like cells
- Knock-down reagent: siRNA pool against human genes, 50 nM
- Duration: LPS for 4 h, given about 3 days after siRNA transfection
- Treatment: bacterial LPS (TLR4 ligand), 10 ng/ml
- Detection: 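TNF firefly reporter luminescence divided by renilla, normalised to the plate median, then turned into a robust z-score for each replicate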
- Reading the numbers: TNF reporter robust z-score: higher = stronger TNF reporter response to LPS
- Call rule: 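Each well counts as active if its z-score is over 2.8 or under -1.5; controls are left without a call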

target | TNF reporter robust z-score
MYCBP2 | -0.53
MYCBP2 | -1.15
MYCBP2 | -1.09
MYCBP2 | -0.7
TEX55 | -0.74
TEX55 | -0.3
TEX55 | -0.51
TEX55 | -0.35
VEGFD | -0.07
VEGFD | 1.17
VEGFD | 0.96
VEGFD | 2.1
TGFBR3 | -0.16
TGFBR3 | -0.03
TGFBR3 | -0.92
TGFBR3 | 1.12
MBLAC2 | 1.46
MBLAC2 | -0.79
MBLAC2 | -1.3
MBLAC2 | -0.57
NKTR | -1.32
NKTR | 4.93 (active)
NKTR | 0.3
NKTR | 0.05
RACGAP1 | -0.11
RACGAP1 | -0.81
RACGAP1 | -0.68
RACGAP1 | -0.28

Reprinted from above for reference:
target | TNF reporter robust z-score
MBLAC2 | -0.79
MBLAC2 | -1.3
MBLAC2 | -0.57
NKTR | -1.32
NKTR | 4.93 (active)
NKTR | 0.3
NKTR | 0.05
RACGAP1 | -0.11

The listing continues.
target | TNF reporter robust z-score
LUZP1 | 3.72 (active)
LUZP1 | 1.71
LUZP1 | 0.24
LUZP1 | 0.95
STRA8 | -0.96
STRA8 | -0.32
STRA8 | 0.04
STRA8 | -1.19
CD79A | 1.18
CD79A | 1.28
CD79A | 1.51
CD79A | 0.42
SELENBP1 | 0.28
SELENBP1 | 0.74
SELENBP1 | 0.73
SELENBP1 | 0.87
GIMAP7 | -1.51 (active)
GIMAP7 | 0.45
GIMAP7 | 0.3
GIMAP7 | 0.35
CLPTM1L | -0.75
CLPTM1L | -0.97
CLPTM1L | -0.93
CLPTM1L | -0.81
ZNF786 | 0.24
ZNF786 | 0.43
ZNF786 | -0.21
ZNF786 | -0.27
BATF3 | -0.65
BATF3 | -0.48
BATF3 | 0
BATF3 | -0.79
MEF2D | -0.58
MEF2D | -0.59
MEF2D | -1.2
MEF2D | -0.6
RPP25L | 0.02
RPP25L | 0.54
RPP25L | -1.69 (active)
RPP25L | -1.62 (active)
ETV2 | 0.62
ETV2 | 0.17
ETV2 | -1.37
ETV2 | -0.98
MRPL41 | -1.11
MRPL41 | -0.08
MRPL41 | -0.95
MRPL41 | -0.49
